Source: patent US20190167819A1, “CONTRAST AGENTS” (BRACCO IMAGING S.P.A., priority 2016, published 2019)
For at least one compound, name, drawing or mass did not settle the structure.

Assay: Relaxometric properties: longitudinal relaxivity r1p in human plasma
Assay type: physicochemical
Details: 37° C.
Experimental: The relaxometric properties of some representative complex compounds according to the invention have been determined at different magnetic field strengths, e.g. including 0.47 and 1.41 T, at 37° C. and in different media (physiologic solution and human plasma) and compared with relaxivity values measured, at the same conditions, for some Gd-Complex of the market having an analogous cyclic coordination cage.
The longitudinal water proton relaxation rate (R1=1/T1) was measured at 0.47 T with a Minispec MQ-20 spectrometer (Bruker Biospin, Germany) operating at a proton Larmor frequency of 20 MHz; MR experiments at 1.41 T were performed using a Minispec MQ-60 spectrometer (Bruker Biospin, Germany) operating at a proton Larmor frequency of 60 MHz. […]
Relaxivity measurements were performed at 0.47 T and 1.41 T at a preset temperature sample of 37° C., kept constant by means of a thermostatic bath connected to the sample holder of the spectrometer. […] Longitudinal relaxation time T1 was measured by means of a standard inversion recovery sequence, where the inversion time (TI) was varied from 10 ms to at least 5 times T1 in 15 steps. […] Errors on the estimated parameters were evaluated by the fitting procedure.

## CC(O)CN1CCN(CC(=O)O)CCN(CP(=O)(O)O)CCN(CC(=O)O)CC1 (centres unmarked) [Comparative 1]
0.47 T
  r1p in human plasma: 5.2 mM⁻¹ s⁻¹
1.41 T
  r1p in human plasma: 4.5 mM⁻¹ s⁻¹
